Results: the supplement of paper PMC7661543
Differences between knockout arms are mostly noise.

Tested on: MDA-MB-231
Experiment: relative cell number vs DMSO control (72 h) (% of DMSO); higher = less growth inhibition (more cells)
Description: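 QMAP-Seq: a pool of 5 breast cancer cell lines (ZR-75-1, SKBR3, HCC-38, MDA-MB-231, BT-20), each carrying 12 doxycycline-inducible Cas9 sgRNA perturbations (11 knockouts plus non-targeting sgNT), was treated with compounds for 72 h at four 10-fold doses (10 nM-10 uM or 1 nM-1 uM range). Barcodes were amplified and sequenced, and cell number was interpolated from 293T spike-in standard curves. The result is expressed as % of the median of DMSO wells. Two biological replicates.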

COc1cc(C(=O)N2CCC(N3CCN(C)CC3)CC2)ccc1Nc1ncc2c(n1)N(C)c1ccccc1C(=O)N2C [LRRK2IN1]
Conditions | relative cell number
sgRNA knockout: sgATF3, 10 nM | 117
sgRNA knockout: sgATF3, 100 nM | 86.4
sgRNA knockout: sgATF3, 1000 nM | 59
sgRNA knockout: sgATF3, 10000 nM | 21.2
sgRNA knockout: sgATF4, 10 nM | 112
sgRNA knockout: sgATF4, 100 nM | 90.4
sgRNA knockout: sgATF4, 1000 nM | 61.3
sgRNA knockout: sgATF4, 10000 nM | 24.4
sgRNA knockout: sgATF6, 10 nM | 91
sgRNA knockout: sgATF6, 100 nM | 87.5
sgRNA knockout: sgATF6, 1000 nM | 57.3
sgRNA knockout: sgATF6, 10000 nM | 19.9
sgRNA knockout: sgATG7, 10 nM | 105
sgRNA knockout: sgATG7, 100 nM | 81.3
sgRNA knockout: sgATG7, 1000 nM | 56.5
sgRNA knockout: sgATG7, 10000 nM | 21.8
sgRNA knockout: sgERN1, 10 nM | 107
sgRNA knockout: sgERN1, 100 nM | 90.6
sgRNA knockout: sgERN1, 1000 nM | 58
sgRNA knockout: sgERN1, 10000 nM | 13.8
sgRNA knockout: sgHSF1, 10 nM | 115
sgRNA knockout: sgHSF1, 100 nM | 72.9
sgRNA knockout: sgHSF1, 1000 nM | 56.5
sgRNA knockout: sgHSF1, 10000 nM | 20.5
sgRNA knockout: sgHSF2, 10 nM | 109
sgRNA knockout: sgHSF2, 100 nM | 93.6
sgRNA knockout: sgHSF2, 1000 nM | 50
sgRNA knockout: sgHSF2, 10000 nM | 18.7
sgRNA knockout: sgKEAP1, 10 nM | 111
sgRNA knockout: sgKEAP1, 100 nM | 88.9
sgRNA knockout: sgKEAP1, 1000 nM | 52
sgRNA knockout: sgKEAP1, 10000 nM | 17.4
sgRNA knockout: sgNFE2L2, 10 nM | 104
sgRNA knockout: sgNFE2L2, 100 nM | 70.1
sgRNA knockout: sgNFE2L2, 1000 nM | 54.8
sgRNA knockout: sgNFE2L2, 10000 nM | 20.1
sgRNA knockout: sgSLC35F2, 10 nM | 110
sgRNA knockout: sgSLC35F2, 100 nM | 94.1
sgRNA knockout: sgSLC35F2, 1000 nM | 69.5
sgRNA knockout: sgSLC35F2, 10000 nM | 20.31
sgRNA knockout: sgXBP1, 10 nM | 104
sgRNA knockout: sgXBP1, 100 nM | 89
sgRNA knockout: sgXBP1, 1000 nM | 52.1
sgRNA knockout: sgXBP1, 10000 nM | 19.9

C[C@@]1(C(=O)Nc2ccc(F)nc2)CCCN1c1nc(Nc2cc(C3CC3)n[nH]2)c2cccn2n1
Conditions | relative cell number
sgRNA knockout: sgATF3, 10 nM | 103
sgRNA knockout: sgATF3, 100 nM | 82.4
sgRNA knockout: sgATF3, 1000 nM | 61.1
sgRNA knockout: sgATF3, 10000 nM | 25.9
sgRNA knockout: sgATF4, 10 nM | 93.1
sgRNA knockout: sgATF4, 100 nM | 75.6
sgRNA knockout: sgATF4, 1000 nM | 51.6
sgRNA knockout: sgATF4, 10000 nM | 41
sgRNA knockout: sgATF6, 10 nM | 119
sgRNA knockout: sgATF6, 100 nM | 76.1
sgRNA knockout: sgATF6, 1000 nM | 54.2
sgRNA knockout: sgATF6, 10000 nM | 25.8
sgRNA knockout: sgATG7, 10 nM | 87.5
sgRNA knockout: sgATG7, 100 nM | 77.5
sgRNA knockout: sgATG7, 1000 nM | 57.2
sgRNA knockout: sgATG7, 10000 nM | 25.6
sgRNA knockout: sgERN1, 10 nM | 78.3
sgRNA knockout: sgERN1, 100 nM | 68.9
sgRNA knockout: sgERN1, 1000 nM | 65.8
sgRNA knockout: sgERN1, 10000 nM | 29.5
sgRNA knockout: sgHSF1, 10 nM | 83.4
sgRNA knockout: sgHSF1, 100 nM | 71.1
sgRNA knockout: sgHSF1, 1000 nM | 53.9
sgRNA knockout: sgHSF1, 10000 nM | 38.1
sgRNA knockout: sgHSF2, 10 nM | 84.2
sgRNA knockout: sgHSF2, 100 nM | 73.1
sgRNA knockout: sgHSF2, 1000 nM | 59.7
sgRNA knockout: sgHSF2, 10000 nM | 27.8
sgRNA knockout: sgKEAP1, 10 nM | 102
sgRNA knockout: sgKEAP1, 100 nM | 75.4
sgRNA knockout: sgKEAP1, 1000 nM | 63.4
sgRNA knockout: sgKEAP1, 10000 nM | 32.3
sgRNA knockout: sgNFE2L2, 10 nM | 79.3
sgRNA knockout: sgNFE2L2, 100 nM | 90.5
sgRNA knockout: sgNFE2L2, 1000 nM | 61.2
sgRNA knockout: sgNFE2L2, 10000 nM | 27.1
sgRNA knockout: sgSLC35F2, 10 nM | 92
sgRNA knockout: sgSLC35F2, 100 nM | 61.7
sgRNA knockout: sgSLC35F2, 1000 nM | 73
sgRNA knockout: sgSLC35F2, 10000 nM | 25.3
sgRNA knockout: sgXBP1, 10 nM | 103
sgRNA knockout: sgXBP1, 100 nM | 93.5
sgRNA knockout: sgXBP1, 1000 nM | 58.4
sgRNA knockout: sgXBP1, 10000 nM | 31.1

C=C1C[C@@H]2[C@H](CC[C@]3(C)C(=O)CC[C@@H]23)[C@@]2(C)C=CC(=O)C=C12 [Exemestane]
Conditions | relative cell number
sgRNA knockout: sgATF3, 10 nM | 104
sgRNA knockout: sgATF3, 100 nM | 95.4
sgRNA knockout: sgATF3, 1000 nM | 89.4
sgRNA knockout: sgATF3, 10000 nM | 83.2
sgRNA knockout: sgATF4, 10 nM | 121
sgRNA knockout: sgATF4, 100 nM | 96.9
sgRNA knockout: sgATF4, 1000 nM | 116
sgRNA knockout: sgATF4, 10000 nM | 93.1
sgRNA knockout: sgATF6, 10 nM | 95.9
sgRNA knockout: sgATF6, 100 nM | 99.61
sgRNA knockout: sgATF6, 1000 nM | 83.128
sgRNA knockout: sgATF6, 10000 nM | 108
sgRNA knockout: sgATG7, 10 nM | 105
sgRNA knockout: sgATG7, 100 nM | 81.5
sgRNA knockout: sgATG7, 1000 nM | 101
sgRNA knockout: sgATG7, 10000 nM | 108
sgRNA knockout: sgERN1, 10 nM | 107
sgRNA knockout: sgERN1, 100 nM | 90.6
sgRNA knockout: sgERN1, 1000 nM | 99.3
sgRNA knockout: sgERN1, 10000 nM | 84.7
sgRNA knockout: sgHSF1, 10 nM | 83.4
sgRNA knockout: sgHSF1, 100 nM | 107
sgRNA knockout: sgHSF1, 1000 nM | 97.8
sgRNA knockout: sgHSF1, 10000 nM | 105
sgRNA knockout: sgHSF2, 10 nM | 98.9
sgRNA knockout: sgHSF2, 100 nM | 72.7
sgRNA knockout: sgHSF2, 1000 nM | 99.1
sgRNA knockout: sgHSF2, 10000 nM | 96
sgRNA knockout: sgKEAP1, 10 nM | 96.1
sgRNA knockout: sgKEAP1, 100 nM | 97.3
sgRNA knockout: sgKEAP1, 1000 nM | 107
sgRNA knockout: sgKEAP1, 10000 nM | 91.1
sgRNA knockout: sgNFE2L2, 10 nM | 93.7
sgRNA knockout: sgNFE2L2, 100 nM | 79.3
sgRNA knockout: sgNFE2L2, 1000 nM | 98.1
sgRNA knockout: sgNFE2L2, 10000 nM | 73.2
sgRNA knockout: sgSLC35F2, 10 nM | 109
sgRNA knockout: sgSLC35F2, 100 nM | 87.7
sgRNA knockout: sgSLC35F2, 1000 nM | 122
sgRNA knockout: sgSLC35F2, 10000 nM | 98.6
sgRNA knockout: sgXBP1, 10 nM | 123
sgRNA knockout: sgXBP1, 100 nM | 101
sgRNA knockout: sgXBP1, 1000 nM | 74.3
sgRNA knockout: sgXBP1, 10000 nM | 93
